# Results of single-concentration screens

Sequences of proteins named here, by UniProt entry; tags and fusion partners are left off. Residues count along the entry.
UniProt Q4DA54, 1-478: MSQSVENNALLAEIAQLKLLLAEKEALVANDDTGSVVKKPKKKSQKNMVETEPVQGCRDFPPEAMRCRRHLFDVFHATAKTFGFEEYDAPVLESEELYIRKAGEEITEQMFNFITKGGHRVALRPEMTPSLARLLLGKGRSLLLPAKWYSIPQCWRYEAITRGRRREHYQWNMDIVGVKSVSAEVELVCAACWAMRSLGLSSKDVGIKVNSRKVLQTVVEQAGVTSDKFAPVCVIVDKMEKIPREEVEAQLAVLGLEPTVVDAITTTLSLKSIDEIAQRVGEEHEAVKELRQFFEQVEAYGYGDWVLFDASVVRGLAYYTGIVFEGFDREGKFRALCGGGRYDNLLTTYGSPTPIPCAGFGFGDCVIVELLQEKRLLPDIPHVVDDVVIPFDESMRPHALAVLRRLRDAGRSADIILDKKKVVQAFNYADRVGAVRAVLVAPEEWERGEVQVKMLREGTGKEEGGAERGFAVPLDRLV
UniProt A4I591, 1-473: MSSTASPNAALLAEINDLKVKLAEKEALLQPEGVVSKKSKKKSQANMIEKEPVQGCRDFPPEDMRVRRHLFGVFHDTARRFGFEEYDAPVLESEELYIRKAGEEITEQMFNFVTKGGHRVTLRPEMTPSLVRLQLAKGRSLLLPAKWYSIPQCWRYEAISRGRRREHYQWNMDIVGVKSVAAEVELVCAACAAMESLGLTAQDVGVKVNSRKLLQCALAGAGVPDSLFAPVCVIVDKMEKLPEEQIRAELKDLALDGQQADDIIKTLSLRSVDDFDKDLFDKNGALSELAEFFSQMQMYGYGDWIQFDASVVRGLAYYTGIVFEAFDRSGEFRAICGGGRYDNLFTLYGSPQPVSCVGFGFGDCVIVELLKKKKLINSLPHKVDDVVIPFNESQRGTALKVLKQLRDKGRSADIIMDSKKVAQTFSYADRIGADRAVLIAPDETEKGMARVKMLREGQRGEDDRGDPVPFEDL
UniProt P9WPC5, whole entry: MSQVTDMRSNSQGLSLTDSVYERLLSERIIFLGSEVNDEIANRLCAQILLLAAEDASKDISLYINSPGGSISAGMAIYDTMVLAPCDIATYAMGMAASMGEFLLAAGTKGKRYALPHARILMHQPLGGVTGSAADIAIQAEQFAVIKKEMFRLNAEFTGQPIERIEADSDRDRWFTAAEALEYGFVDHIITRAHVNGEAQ
UniProt P9WPC3, whole entry partner: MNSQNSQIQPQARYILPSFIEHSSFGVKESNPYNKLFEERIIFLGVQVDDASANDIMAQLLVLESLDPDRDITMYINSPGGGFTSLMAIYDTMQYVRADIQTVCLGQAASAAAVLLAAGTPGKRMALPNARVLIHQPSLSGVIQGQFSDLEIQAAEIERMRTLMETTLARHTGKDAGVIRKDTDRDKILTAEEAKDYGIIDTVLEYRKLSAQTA

Toxoplasma: 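Assay of Toxoplasma gondii numbers, read through their beta-galactosidase reporter with a colour substrate. Compounds at 10 µM. The record gives no direction; the compounds picked for IC50 retests had high values, so higher reads as fewer parasites. Of about 67,000 compounds tested this way, about 260 (0.38%) reached 50% or more in at least one test.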
Leishmania in macrophages: 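Cell assay of Leishmania donovani living inside macrophages; the read-out is not stated. Compounds at 30 µM. Direction is inferred from retests: higher values go with stronger inhibition. About 69,000 compounds were tested under these conditions; 1.5% (about 1,000) showed 50% or more at least once.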
TcHisRS: 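Histidine-tRNA ligase, Trypanosoma cruzi CL Brener (UniProt Q4DA54). Enzyme assay of histidyl-tRNA synthetase; the read-out is not stated. Tested at 30 µM. Higher reads as stronger inhibition (inferred: compounds with an IC50 in retests scored well above the rest). Of about 69,000 compounds tested this way, about 31 (0.045%) reached 50% or more in at least one test.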
LiHisRS: 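Enzyme assay of histidyl-tRNA synthetase; the read-out is not stated. Target: Histidine-tRNA ligase, Leishmania infantum (UniProt A4I591). Tested at 30 µM. Higher reads as stronger inhibition (inferred: compounds with an IC50 in retests scored well above the rest). The assay is labelled LdHisRS but filed under L. infantum. About 69,000 compounds were tested under these conditions; 0.6% (about 410) showed 50% or more at least once.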
ClpP1P2: 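Protease assay of ClpP1P2, read by the AMC dye that it sets free. Target: ClpP1P2, Mycobacterium tuberculosis (UniProt P9WPC5 and UniProt P9WPC3). Tested at 50 µM. Direction is inferred from only a few compounds that gave an IC50; most scored high, so higher reads as stronger inhibition. Most other retested compounds had strongly negative values. About 69,000 compounds were tested under these conditions; 0.015% (about 10) showed 50% or more at least once.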
T. brucei: 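Whole-parasite assay of Trypanosoma brucei over 72 hours; the read-out is not stated. Concentration: 30 µM. Higher reads as stronger inhibition (inferred: compounds with an IC50 in retests scored well above the rest). Values scatter widely below zero; nearly all retest evidence comes from the higher of the two concentrations used. Size under these conditions: about 64,000 compounds, about 940 of them at 50% or above in at least one test.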

Results are given as percent effect.
The record does not define 0% and 100%; most values in the screen are far below 50% and negative numbers occur (in some assays of this library far below -100).
The compounds are a random part of those screened.
Two or more numbers in one place are separate tests of the same structure; such repeats can differ widely.

Cc1noc(C)c1CNC(=O)N1CCC(C(O)c2ccccc2)CC1 (stereo not shown) read Toxoplasma: 17.45%; Leishmania in macrophages: 31.47%; TcHisRS: 0%; LiHisRS: 11.43%; ClpP1P2: -2.536%; T. brucei: 36.14%. For Cc1ccc(C(=O)N2C[C@@H]3COC[C@]3(COc3cccnc3)C2)cn1 the result was TcHisRS: -2.762%; LiHisRS: 7.519%; ClpP1P2: 13.31%. Cc1ccc(C(=O)N2CC(Oc3ccccc3C)C2)s1 gave Toxoplasma: 24.28%; Leishmania in macrophages: 0.427%; TcHisRS: 0%; LiHisRS: 27.71%; ClpP1P2: 6.509%; T. brucei: -8.86%. For COc1ccc(Nc2nc(N)c(C(C)=O)s2)cc1Cl the result was Toxoplasma: 8.024%; Leishmania in macrophages: 48.45% and 44.93%; TcHisRS: 10.98%; LiHisRS: 28.95%; ClpP1P2: -5.39%; T. brucei: -9.421%.

CC(C)NC(=O)[C@@H]1CN(C)C[C@]12COc1ccc(F)cc1C2=O gave Toxoplasma: 4.899%; Leishmania in macrophages: 23.17%; TcHisRS: 0%; LiHisRS: 4.225%; ClpP1P2: -17.04%; T. brucei: -21.88%. With NC(=O)CC1CCCCN1C(=O)c1cccc(C(F)(F)F)c1 (stereo not shown) the screen gave Toxoplasma: -8.543%; Leishmania in macrophages: 13.53%; TcHisRS: 6.936%; LiHisRS: 15.18%; ClpP1P2: -27.71%; T. brucei: 2.61%. For CCc1c(C)nc2n(c1=O)CC(C(=O)Nc1nccs1)CS2 (stereo not shown) the result was Toxoplasma: 0.4435%; Leishmania in macrophages: -5.977%; TcHisRS: -2.174%; LiHisRS: 10.68%; ClpP1P2: -3.88%; T. brucei: 13.34%. For COc1c(C)cnc(CN(C)C(=O)Nc2ccc3c(c2)CCO3)c1C the result was Toxoplasma: -11.05%; Leishmania in macrophages: 23.59%; TcHisRS: 9.877%; LiHisRS: -4.301%; ClpP1P2: -2.802%; T. brucei: 21.87%.

For CCOCC1CN(C(=O)c2cnoc2C)Cc2cn(CC3CC3)nc21 (stereo not shown) the result was Toxoplasma: -5.34%; Leishmania in macrophages: 3.386%; TcHisRS: 3.797%; LiHisRS: 18.97%; ClpP1P2: -10.39%; T. brucei: -53.14%. Result for COCC(C)NC(=O)c1cc(Br)c2c(c1)OCCO2 (stereo not shown) was Toxoplasma: -2.871%; Leishmania in macrophages: -30.45%; TcHisRS: -0.3774%; LiHisRS: 14.86%; ClpP1P2: -7.449%; T. brucei: -16.04%. With O=S(=O)(Cc1ccccc1)NCc1nnc2n1CCC2 the screen gave Toxoplasma: -0.8813%; Leishmania in macrophages: 14.56% and 12.8%; TcHisRS: 7.317%; LiHisRS: 13.16%; ClpP1P2: 3.941%; T. brucei: -38.65%. For CCOc1ccccc1C(C(=O)O)N(C)Cc1cc(C)[nH]n1 (stereo not shown) the result was Toxoplasma: 21.48%; Leishmania in macrophages: -20.84%; TcHisRS: 3.015%; LiHisRS: 8.235%; ClpP1P2: -2.473%; T. brucei: -32.65%.

For CC(C)N1CCCC1c1cc(C(F)(F)F)[nH]n1 (stereo not shown) the result was Toxoplasma: 0.4731%; Leishmania in macrophages: 29.39%; TcHisRS: 3.03%; LiHisRS: 8.696%; ClpP1P2: -16.96%; T. brucei: -18.65%. For Cc1ccc(-c2ncc(C(=O)NCCNC(=O)C(C)C)s2)c(C)c1 the result was Toxoplasma: -3.159%; Leishmania in macrophages: 2.365%; TcHisRS: 2.256%; LiHisRS: 7.143%; ClpP1P2: -2.649%; T. brucei: 3.016%. Result for COc1ccc(F)cc1C(C)NC(=O)NCCCn1cncn1 (stereo not shown) was Toxoplasma: -9.773%; Leishmania in macrophages: 37.39%; TcHisRS: 2.882%; LiHisRS: 8.929%; ClpP1P2: -21.13%; T. brucei: 7.582%. For CCCNC(=O)NC(=O)CN1C=Nc2ccccc2S1(=O)=O the result was Toxoplasma: 6.828%; Leishmania in macrophages: 18.85%; TcHisRS: 1.156%; LiHisRS: 11.4%; ClpP1P2: -13.89%; T. brucei: 18.01%.

With CNc1cncc(C2CCCN2S(=O)(=O)c2ccc(F)cc2)n1 (stereo not shown) the screen gave Toxoplasma: 10.23%; Leishmania in macrophages: -11.55% and -14.98%; TcHisRS: 0.7463%; LiHisRS: -7.368%; ClpP1P2: -22.01%; T. brucei: -13.73%. COc1cccc(CNC(=O)CCNS(=O)(=O)c2ccc(C)cc2)c1 read Toxoplasma: -21.18%; Leishmania in macrophages: -18.92%; TcHisRS: 9.045%; LiHisRS: 9.574%; ClpP1P2: 9.525%; T. brucei: -22.72%. For Cc1nc(O)cc(C2CCN(C(=O)c3ccsc3)CC2)n1 the result was Toxoplasma: -5.294%; Leishmania in macrophages: 22.09%; TcHisRS: 8.163%; LiHisRS: 8.264%; ClpP1P2: -2.815%; T. brucei: 10.23%.

Repeated from the top, 2 entries:

* Cc1noc(C)c1CNC(=O)N1CCC(C(O)c2ccccc2)CC1 (stereo not shown) | Toxoplasma: 17.45%; Leishmania in macrophages: 31.47%; TcHisRS: 0%; LiHisRS: 11.43%; ClpP1P2: -2.536%; T. brucei: 36.14%
* Cc1ccc(C(=O)N2C[C@@H]3COC[C@]3(COc3cccnc3)C2)cn1 | TcHisRS: -2.762%; LiHisRS: 7.519%; ClpP1P2: 13.31%

Measurements from “University of Dundee, Small-Polar-MMV Screening Library” (2021), ChEMBL document CHEMBL3988442.